{"source": "PubChem BioAssay AID662", "about": "(National Center for Advancing Translational Sciences (NCATS), 2007)", "note": "Where “and” joins values, the source holds several entries; their conditions need not be identical. Equal values may be shown once. The list shows a part of the results. Further columns of the screen follow, without active or inactive calls. Most of these compounds were active or inconclusive in the main read-out, so they are no random draw. Potencies come from curve fits of mixed quality, noted in brackets."}
{"experiment": "Cell signaling CRE-BLA (Fsk stim)", "conditions": "CHO CRE-bla reporter (cAMP response element driving beta-lactamase), forskolin EC10, beta-lactamase ratio; measured here: 460 nm blue channel", "how_it_was_run": "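CRE-bla CHO cells stimulated with EC10 NKH 477 (water-soluble forskolin) and compound titrations, 3 h at 37C; beta-lactamase read with CCF4 after 2 h at room temperature. Activity from 460/530 nm emission ratio, AC50 values for positive or negative modulation.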"}
{"compound": "Cc1cccc(CCNC(=O)CCc2nc(-c3ccccc3F)no2)c1", "AC50": "0.00501 µM [falling, full curve, poor fit]"}
{"compound": "Cc1ccc2nc(Nc3ccc4[nH]c(=O)[nH]c4c3)c(-n3nc(C)cc3C)nc2c1", "AC50": "25.1 µM [rising, single point]"}
{"compound": "O=C(CN1C(=O)NC2(CCCCCC2)C1=O)c1ccc2c(c1)OCCO2", "AC50": "5.01 µM [falling, single point]"}
{"compound": "C(=N\\n1cnnc1)/c1cn(-c2cccs2)nc1-c1ccccc1", "AC50": "12.6 µM [rising, single point]"}
{"compound": "O=C1CCCN1CCCNc1ncnc2c1[nH]c1ccccc12", "AC50": "25.1 µM [rising, single point]"}
{"compound": "O=C(NCC1CCCO1)NC1(C(F)(F)F)Oc2ccccc2O1", "note": "(configuration not stated)", "AC50": "10 µM [falling, partial curve]"}
{"compound": "CSc1oc(-c2ccco2)nc1S(=O)(=O)c1ccc(Br)cc1", "AC50": "10 µM [rising, partial curve]"}
{"compound": "COc1ccc(N/C(N)=N/c2nc(CSc3ccc(C)cc3)cc(=O)[nH]2)cc1", "AC50": "0.398 µM [rising, full curve]"}
{"compound": "CCOC(=O)C1CCCN(C(=O)c2cnn3c(C(F)F)cc(-c4ccc(C)cc4)nc23)C1", "note": "(configuration not stated)", "AC50": "12.6 µM [rising, partial curve]"}
{"compound": "CCn1nnnc1NCc1cccn1C", "AC50": "10 µM [rising, single point]"}
{"compound": "COC(=O)c1sc(N2C(=O)C(O)=C(C(=O)c3ccc(C)o3)C2c2ccc(F)cc2)nc1C", "note": "(configuration not stated)", "AC50": "3.16 µM [rising, single point]"}
{"compound": "C=CCOc1cccc(C2C(C(=O)c3ccc(C)o3)=C(O)C(=O)N2c2nccs2)c1", "note": "(configuration not stated)", "AC50": "12.6 µM [rising, single point]"}
{"compound": "CCOC(=O)NCCc1c(C)nc2c(c(C)nn2C(C)(C)C)c1C", "AC50": "6.31 µM [rising, partial curve, poor fit]"}
{"compound": "COc1cccc(-c2cc(NCc3ccccc3)ncn2)c1", "AC50": "7.94 µM [rising, partial curve]"}
{"compound": "Cc1cc(NC(=O)CSc2nc(CCC3CCCC3)nc3ccccc23)no1", "AC50": "0.126 µM [falling, single point]"}
{"compound": "CCOC(=O)C1CCN(C(=O)COc2cc(C)c(Br)c(C)c2)CC1", "AC50": "10 µM [rising, partial curve]"}
{"compound": "CCn1nc(C(=O)OCC(=O)N2c3ccccc3CC2C)c2ccccc2c1=O", "note": "(configuration not stated)", "AC50": "0.00316 µM [falling, full curve, poor fit]"}
{"compound": "CCn1c(=O)cc(SCC(=O)N2CCCCC2)c2ccccc21", "AC50": "10 µM [rising, partial curve, poor fit]"}
{"compound": "O=c1c(-c2ccc(O)cc2)coc2cc(O)ccc12", "AC50": "31.6 µM [falling, partial curve, poor fit]"}
{"compound": "O=C(O)CCn1cnc2ccccc2c1=O", "AC50": "0.631 µM [falling, single point]"}
{"compound": "COc1cc2ccccc2cc1C(=O)Nc1cccnc1", "AC50": "7.94 µM [rising, partial curve]"}
{"compound": "CN1CCCN(Cc2ccccc2C(F)(F)F)CC1", "AC50": "0.398 µM [rising, full curve]"}
{"compound": "CC(C)OC(=O)CSc1nc2ncc(Cl)cc2[nH]1", "AC50": "3.98 µM [rising, single point]"}
{"compound": "O=C1CC(c2ccccc2)CN1C(=O)c1ccccc1", "note": "(configuration not stated)", "AC50": "0.01 µM [falling, full curve]"}
{"compound": "CCCCc1c(O)nc(SCC(=O)c2ccccc2)[nH]c1=O", "AC50": "31.6 µM [falling, single point]"}
{"compound": "Cc1nn(Cc2ccccc2Cl)c(C)c1C(=O)N1CCN(c2ccccc2)CC1", "AC50": "0.251 µM [falling, partial curve]"}
{"compound": "COc1cc(C(=O)Nc2nnc(C)s2)cc(OC)c1OC", "AC50": "10 µM [rising, single point]"}
{"compound": "CCOC(=O)c1c(NC(=O)CSc2nnc(C)c(=O)[nH]2)sc2c1CCC2", "AC50": "12.6 µM [rising, partial curve]"}
{"compound": "CC(C(=O)NC1=NCCS1)(C(F)(F)F)C(F)(F)F", "AC50": "12.6 µM [rising, single point]"}
{"compound": "CC(NC(=O)COC(=O)CCNC(=O)c1ccco1)C12CC3CC(CC(C3)C1)C2", "note": "(configuration not stated)", "AC50": "2 µM [rising, partial curve, poor fit]"}
{"compound": "CSc1ccccc1C(=O)Nc1cccc(N(C)S(C)(=O)=O)c1", "AC50": "0.00398 µM [falling, full curve, poor fit]"}
{"compound": "O=c1[nH]c2ccc(S(=O)(=O)N3CCN(Cc4ccccc4)CC3)cc2[nH]c1=O", "AC50": "0.00398 µM [falling, full curve, poor fit]"}
{"compound": "CCOc1ccc(N2CC(C(=O)OC)CC2=O)cc1", "note": "(configuration not stated)", "AC50": "0.00316 µM [falling, full curve, poor fit]"}
{"compound": "NC(=O)C1CCN(C(=O)C2c3ccccc3C(=O)N3CCc4ccccc4C23)CC1", "note": "(configuration not stated)", "AC50": "0.0398 µM [falling, full curve, poor fit]"}
{"compound": "O=C(NCc1cccnc1)C(C(=O)c1ccc(F)cc1)n1ccccc1=O", "note": "(configuration not stated)", "AC50": "0.1 µM [falling, full curve, poor fit]"}
{"compound": "COc1ccc(Oc2ncc3nc(-c4ccc(OC)cc4)c(=O)n(C4CC4)c3n2)cc1", "AC50": "10 µM [rising, partial curve]"}
{"compound": "COc1c(C)c2c(c(O)c1C/C=C(\\C)CCC(=O)O)C(=O)OC2", "AC50": "126 nM [falling, full curve, poor fit] and 10 µM [falling, single point]"}
{"compound": "Cc1noc(C)c1COC(=O)Cn1c(C)nc2ccccc21", "AC50": "3.98 µM [falling, partial curve]"}
{"compound": "CCOC(=O)NCc1cc(-c2nn(C)c(=O)c3ccccc23)ccc1C", "AC50": "3.98 µM [rising, partial curve]"}
{"compound": "CCn1c2c(c3ccc(OC)cc31)CCCC2=O", "AC50": "12.6 µM [rising, single point]"}
{"compound": "c1ccc2c(c1)[nH]c1c(N3CCCC3)ncnc12", "AC50": "15.8 µM [rising, partial curve]"}
{"compound": "C[C@H](Oc1ccc(Oc2cnc3ccc(Cl)cc3n2)cc1)C(=O)O", "AC50": "2.51 µM [falling, single point]"}
{"compound": "CC(C)c1ccc(S(=O)(=O)N2CCN(CC(=O)Nc3ccc4c(c3)OCO4)CC2)cc1", "AC50": "5.01 µM [rising, full curve, poor fit]"}
{"compound": "CCOC(=O)C1=C(C)NC(C)=C(C(=O)OCC)C1C(=O)OCC(=O)N1CCc2ccccc2C1", "AC50": "0.158 µM [falling, full curve, poor fit]"}
{"compound": "COCCn1c(=O)c(C)nc2cnc(N3CCOCC3)nc21", "AC50": "15.8 µM [rising, partial curve]"}
{"compound": "CCOc1nc(-c2ccc(OC)cc2)ccc1-c1noc(-c2ccncc2)n1", "AC50": "10 µM [rising, single point]"}
{"compound": "COc1ccccc1OCC(O)Cn1c(=N)n(Cc2ccccc2)c2ccccc21", "note": "(configuration not stated)", "AC50": "3.98 µM [falling, partial curve]"}
{"compound": "COc1ccc(-c2cc(C(=O)N3CC4(C)CC3CC(C)(C)C4)no2)cc1", "note": "(configuration not stated)", "AC50": "0.00398 µM [falling, full curve, poor fit]"}
{"compound": "O=C(Nc1ccc2nc(-c3cccnc3)[nH]c2c1)c1ccco1", "AC50": "10 µM [rising, partial curve]"}
{"compound": "CN1CCN(c2ncc3nc(-c4cc(F)cc(F)c4)c(=O)n(-c4ccccc4)c3n2)CC1", "AC50": "5.01 µM [rising, partial curve]"}
{"compound": "CCOC(=O)c1cnn2c(C)cc(-c3ccccc3)nc12", "AC50": "6.31 µM [rising, partial curve]"}
{"compound": "COc1cccc(-c2cnc(NCc3cc(Cl)ccc3O)n2C)c1", "AC50": "20 µM [falling, partial curve]"}
{"compound": "COc1ccc(-c2noc(-c3ccccc3Cl)n2)cc1OC", "AC50": "20 µM [rising, single point]"}
{"compound": "COC(=O)c1c(-c2cc(OC)c(OC)c(OC)c2)c2ccc(OCc3ccccn3)cc2c(=O)n1-c1ccc(N)cc1", "AC50": "12.6 µM [rising, partial curve]"}
{"compound": "O=C(O)[C@@H]1[C@H](C(=O)O)[C@H]2C(=O)C=C[C@H]1N2Cc1ccccc1", "AC50": "3.98 µM [falling, single point]"}
{"compound": "CCCCNC(NCCCC)=C(S(=O)(=O)CC)S(=O)(=O)CC", "AC50": "0.398 µM [rising, partial curve]"}
{"compound": "Cc1c(C(=O)N2CCN(C(=O)c3ccco3)CC2)sc2nc(-c3ccc(F)cc3)cn12", "AC50": "5.01 µM [rising, partial curve]"}
{"compound": "COc1ccccc1CNc1nc(-c2ccccc2CN(C)C)nc2ccccc12", "AC50": "7.94 µM [rising, partial curve]"}
{"compound": "CN1CCN(CCCNC(=O)c2cc3c(=O)oc4ccccc4c3s2)CC1", "AC50": "10 µM [rising, partial curve]"}
{"compound": "COC(=O)c1[nH]c2cc(OC)ccc2c1N", "AC50": "3.98 µM [falling, partial curve]"}
{"compound": "COc1ccc(-n2c(=O)c(-c3cccc(C#N)c3)nc3cnc(N4CCNCC4)nc32)cc1", "AC50": "12.6 µM [rising, partial curve]"}
{"compound": "CCOc1ccc(N2C(=O)c3cccnc3C2Nc2ccc(C)cc2)cc1", "note": "(configuration not stated)", "AC50": "0.01 µM [rising, full curve]"}
{"compound": "CCOC(=O)c1c(C)[nH]c(C(=O)COc2ccc3c(c2)OCO3)c1C", "AC50": "10 µM [rising, single point]"}
{"compound": "COc1ccc(CC(=O)Nc2ccc3c(c2)CCC3)cc1S(=O)(=O)N1CCOCC1", "AC50": "0.631 µM [falling, full curve, poor fit]"}
{"compound": "CNc1ncnc2ccc(-c3ccccc3CN(C)C)cc12", "AC50": "7.94 µM [rising, partial curve]"}
{"compound": "O=C(Nc1nc2c(s1)CCc1ccccc1-2)c1ccco1", "AC50": "10 µM [rising, single point]"}
{"compound": "CCOC(=O)C1[C@H]2C(=O)N(CCCOC)C[C@]23C=C[C@H]1O3", "note": "(some centres not stated)", "AC50": "12.6 µM [falling, partial curve]"}
